No constants are given. Whether binding was seen depends on the method and setting. Some entries that bind do so weakly or less than the wild type.
How the values were obtained:
[1] = target: BoNT/A light-chain heavy-chain N-terminus (LCHN) domain (UniProt P0DPI0); test: ELISA, toxin domain coated on plate (method qualification)
[2] = target: BoNT/A light-chain heavy-chain N-terminus (LCHN) domain (UniProt P0DPI0); test: toxin domain ELISA of the 1:1:1 co-formulated mixture
[3] = target: BoNT/A light-chain heavy-chain N-terminus (LCHN) domain (UniProt P0DPI0); test: toxin domain binding ELISA of the mixture after 24 months at 2-8 C
[4] = target: BoNT/A light-chain heavy-chain N-terminus (LCHN) domain (UniProt P0DPI0); test: ELISA, toxin domain coated on plate, anti-human IgG Fc-HRP detection
[5] = target: BoNT/A heavy-chain C-terminus (HCC) domain (UniProt P0DPI0); test: ELISA, toxin domain coated on plate (method qualification)
[6] = target: BoNT/A heavy-chain C-terminus (HCC) domain (UniProt P0DPI0); test: toxin domain ELISA of the 1:1:1 co-formulated mixture
[7] = target: BoNT/A heavy-chain C-terminus (HCC) domain (UniProt P0DPI0); test: toxin domain binding ELISA of the mixture after 24 months at 2-8 C
[8] = target: BoNT/A heavy-chain C-terminus (HCC) domain (UniProt P0DPI0); test: ELISA, toxin domain coated on plate, anti-human IgG Fc-HRP detection

The chains behind the UniProt entries cited, without tags or fusion partners. Residues count along the entry.
BoNT/A light-chain heavy-chain N-terminus (LCHN) domain (P0DPI0, residues 1-870): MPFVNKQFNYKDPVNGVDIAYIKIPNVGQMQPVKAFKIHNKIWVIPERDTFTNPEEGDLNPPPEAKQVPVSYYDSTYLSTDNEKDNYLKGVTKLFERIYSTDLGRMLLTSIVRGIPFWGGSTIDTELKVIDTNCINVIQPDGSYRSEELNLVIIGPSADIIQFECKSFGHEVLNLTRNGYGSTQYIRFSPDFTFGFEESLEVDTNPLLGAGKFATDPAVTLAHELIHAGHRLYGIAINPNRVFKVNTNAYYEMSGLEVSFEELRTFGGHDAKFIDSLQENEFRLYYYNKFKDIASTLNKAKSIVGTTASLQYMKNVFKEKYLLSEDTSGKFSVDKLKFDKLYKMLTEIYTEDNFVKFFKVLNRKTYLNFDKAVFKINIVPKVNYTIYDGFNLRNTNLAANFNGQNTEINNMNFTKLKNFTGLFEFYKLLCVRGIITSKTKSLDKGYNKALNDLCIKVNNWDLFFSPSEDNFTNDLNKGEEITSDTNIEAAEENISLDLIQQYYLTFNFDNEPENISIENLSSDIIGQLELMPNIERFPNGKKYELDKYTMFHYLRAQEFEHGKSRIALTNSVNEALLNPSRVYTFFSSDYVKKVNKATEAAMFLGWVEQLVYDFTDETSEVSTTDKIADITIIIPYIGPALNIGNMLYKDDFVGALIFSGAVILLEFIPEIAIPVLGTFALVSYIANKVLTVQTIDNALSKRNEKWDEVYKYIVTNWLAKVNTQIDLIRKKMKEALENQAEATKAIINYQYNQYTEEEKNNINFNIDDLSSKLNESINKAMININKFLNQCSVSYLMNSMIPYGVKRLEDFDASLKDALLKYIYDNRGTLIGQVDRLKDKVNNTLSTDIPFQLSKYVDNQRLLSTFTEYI
BoNT/A heavy-chain C-terminus (HCC) domain (P0DPI0, residues 1093-1296): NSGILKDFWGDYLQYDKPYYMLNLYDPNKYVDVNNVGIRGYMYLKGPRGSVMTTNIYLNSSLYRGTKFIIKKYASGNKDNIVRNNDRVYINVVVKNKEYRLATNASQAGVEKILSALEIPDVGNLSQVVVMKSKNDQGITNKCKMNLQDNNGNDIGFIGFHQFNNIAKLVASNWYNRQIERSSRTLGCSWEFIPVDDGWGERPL

Measured: binding

B1: ABT03 (antibody, V domains shown)
VH: QVQLQQSGGGLVQPGGSLRLSCAASGFTFSNYAMTWVRQAPGKGLEWVSSISVGGSDTYYADSVKGRFTVSRDNSKNTLLLQMNSLRAEDTAVYYCAKVRTKYCSSLSCFAGFDSWGQGTRVTVSS
VL: DVVMTQSPSSLSASVGDRVTITCRASQSISSYLHWYQQKPGKAPTLLISDASSSQSGVPSRFSGSRFGTDFTLTISSLQPEDFATYYCQQSYSTRALTFGGGTKVEIK
binds: [1] | [2] | [3] | [4]

B2: ABT02 (antibody, V domains shown)
VH: QVQLVQSGGGVVHPGRSLKLSCAGSGFTFSDYDMHWVRQAPGKGLEWVAVMWFDGTEKYSAESVKGRFTISRDNSKNTLFLQMNSLRADDTAVYYCAREPDWLLWGDRGALDVWGQGTTVTVSS
VL: DIVMTQSPSTLSASVGDRVTITCWASQSISSRLAWYQQKPGKAPKLLMYEATSLGSGVPSRFSGSGSGTEFTLTISSLQPDDFAAYYCQHYDTYPYTFGQGTKLEIK
binds: [5] | [6] | [7] | [8]
